In patent US11285127B2, “Compositions and methods for lowering triglycerides without raising LDL-C levels in a subject on concomitant statin therapy” (Amarin Pharmaceuticals Ireland Limited, priority 2013, dated 2022):
At least one compound was matched to its structure with a doubt left.

Experiments:
Format in all cases: in vivo, human
[1] = tested on: patients with fasting triglyceride levels >200 mg/dl and <500 mg/dl despite statin therapy; experiment: 12-week study: lipoprotein particle size (VLDL, LDL, HDL; nuclear magnetic resonance); settings: 4 g/day, 12 weeks, Hodges-Lehmann median
Excerpt: (§1) Parameters (a)-(z) can be measured in accordance with any clinically acceptable methodology. For example, triglycerides, total cholesterol, HDL-C and fasting blood sugar can be sample from serum and analyzed using standard photometry techniques. VLDL-TG, LDL-C and VLDL-C can be calculated or determined using serum lipoprotein fractionation by preparative ultracentrifugation and subsequent quantitative analysis by refractometry or by analytic ultracentrifugal methodology. Apo A1, Apo B and hsCRP can be determined from serum using standard nephelometry techniques. Lipoprotein (a) can be determined from serum using standard turbidimetric immunoassay techniques. LDL particle number and particle size can be determined using nuclear magnetic resonance (NMR) spectrometry. Remnants lipoproteins and LDL-phospholipase A2 can be determined from EDTA plasma or serum and serum, respectively, using enzymatic immunoseparation techniques. Oxidized LDL, intercellular adhesion molecule-1 and interleukin-2 levels can be determined from serum using standard enzyme immunoassay techniques. These techniques are described in detail in standard textbooks, for example Tietz Fundamentals of Clinical Chemistry, 6th Ed. (Burtis, Ashwood and Borter Eds.), WB Saunders Company.
(§2) A multi-center, placebo-controlled, randomized, double-blind, 12-week study was performed to evaluate the efficacy and safety of >96% E-EPA in patients with fasting triglyceride levels >200 mg/dl and <500 mg/dl despite statin therapy (the mean of two qualifying entry values needed to be >185 mg/dl and at least one of the values needed to be >200 mg/dl). The primary objective of the study was to determine the efficacy of >96% E-EPA 2 g daily and 4 g daily, compared to placebo, in lowering fasting TG levels in patients with high risk for cardiovascular disease and with fasting TG levels 200 mg/dl and <500 mg/dl, despite treatment to LDL-C goal on statin therapy.
The secondary objectives of this study were the following: • 1. To determine the safety and tolerability of >96% E-EPA 2 g daily and 4 g daily; • 2. To determine the effect of >96% E-EPA on lipid and apolipoprotein profiles including total cholesterol (TC), non-high-density lipoprotein cholesterol (non-HDL-C), low density lipoprotein cholesterol (LDL-C), high density lipoprotein cholesterol (HDL-C), and […]; • 3. To determine the effect of >96% E-EPA on lipoprotein associated phospholipase A2 (Lp-PLA2) from baseline to week 12; • 4. To determine the effect of >96% E-EPA on low-density lipoprotein (LDL) particle number and size; • 5. To determine the effect of >96% E-EPA on oxidized LDL; • 6. To determine the effect of >96% E-EPA on fasting plasma glucose (FPG) and hemoglobin A1c (HbA1c); • 7. To determine the effect of >96% E-EPA on insulin resistance; • 8. To determine the effect of >96% E-EPA on high-sensitivity C-reactive protein (hsCRP); • 9. To determine the effects of >96% E-EPA 2 g daily and 4 g daily on the incorporation of fatty acids into red blood cell membranes and into plasma phospholipids; • 10. To explore the relationship between baseline fasting TG levels and the reduction in fasting TG levels; and • 11. To explore the relationship between changes of fatty acid concentrations in plasma and red blood cell membranes, and the reduction in fasting TG levels.
The primary efficacy variable for the double-blind treatment period was percent change in TG from baseline to Week 12 endpoint. […]

[2] = tested on: patients with fasting triglyceride levels >200 mg/dl and <500 mg/dl despite statin therapy; experiment: 12-week study: apolipoproteins (Apo A-1, Apo B, ratio) and lipoprotein(a); settings: 4 g/day, Example 2 subset (patients with lipoprotein data)
Excerpt: as §1, with “Company. […]” for “Company.”

[3] = tested on: patients with fasting triglyceride levels >200 mg/dl and <500 mg/dl despite statin therapy; experiment: 12-week study: lipid profile (TC, LDL-C, HDL-C, non-HDL-C, VLDL-C, VLDL-TG, RLP-C); settings: 4 g/day, Example 2 subset (patients with lipoprotein data)
Excerpt: as §1, §2
The secondary objectives of this study were the following: • 1. To determine the safety and tolerability of >96% E-EPA 2 g daily and 4 g daily; • 2. […]

[4] = listed as >96% ethyl-EPA composition

Question: Which results are given for CC/C=C\C/C=C\C/C=C\C/C=C\C/C=C\CCCC(=O)OCC [AMR101, ethyl eicosapentaenoate]?
Answer: HDL particle size, Placebo-Adjusted Median Change from Baseline, 4 g/d [1]: significantly reduced; LDL particle size, Placebo-Adjusted Median Change from Baseline, 4 g/d [1]: modest but significant increase; VLDL particle size, Placebo-Adjusted Median Change from Baseline, 4 g/d [1]: significantly reduced; HDL particle size, Placebo-Adjusted Median Change from Baseline, 4 g/d [1, 4]: significantly reduced; LDL particle size, Placebo-Adjusted Median Change from Baseline, 4 g/d [1, 4]: slightly increased; VLDL particle size, Placebo-Adjusted Median Change from Baseline, 4 g/d [1, 4]: significantly reduced; Apo-B versus placebo at 12 weeks [2]: significant reductions; HDL-C versus placebo at 12 weeks [3]: significant reductions; LDL-C versus placebo at 12 weeks [3]: significant reductions; non-HDL-C versus placebo at 12 weeks [3]: significant reductions
